The subject of this assay is L1210 leukemia ip in BDF1 mice, survival T/C. Briefly: NCI In Vivo Anticancer Drug Screen. Data for tumor model L1210 Leukemia (intraperitoneal) in B6D2F1 (BDF1) mice. Conditions: T/C endpoint: mean survival time, higher T/C = longer survival.
The mark [1] stands for this setting: dose: 100.0 mg/kg/injection, schedule: Q01DX009 (ip), vehicle: Klucel (hydroxypropylcellulose) (HPC).
[2] abbreviates: dose: 200.0 mg/kg/injection, schedule: Q01DX009 (ip), vehicle: Klucel (hydroxypropylcellulose) (HPC).
Setting [3] is: dose: 400.0 mg/kg/injection, schedule: Q01DX009 (ip), vehicle: Klucel (hydroxypropylcellulose) (HPC).
The mark [4] stands for this setting: dose: 400.0 mg/kg/injection, schedule: Q04DX003 (ip), vehicle: Klucel (hydroxypropylcellulose) (HPC).
Where [5] appears, read: dose: 400.0 mg/kg/injection, schedule: Q01DX009 (ip), vehicle: saline with Tween-80.
Where [6] appears, read: dose: 60.0 mg/kg/injection, schedule: Q01DX Z (ip), vehicle: methylcellulose (MC).
The mark [7] stands for this setting: dose: 120.0 mg/kg/injection, schedule: Q01DX Z (ip), vehicle: methylcellulose (MC).
Setting [8] is: dose: 100.0 mg/kg/injection, schedule: Q01DX001 (ip), vehicle: saline.
[9] abbreviates: dose: 200.0 mg/kg/injection, schedule: Q01DX001 (ip), vehicle: saline.
The mark [10] stands for this setting: dose: 400.0 mg/kg/injection, schedule: Q01DX001 (ip), vehicle: saline.
The mark [11] stands for this setting: dose: 200.0 mg/kg/injection, schedule: Q04DX003 (ip), vehicle: Klucel (hydroxypropylcellulose) (HPC).
Setting [12] is: dose: 400.0 mg/kg/injection, schedule: Q04DX003 (ip), vehicle: saline.
The mark [13] stands for this setting: dose: 15.0 mg/kg/injection, schedule: Q01DX Z (ip), vehicle: methylcellulose (MC).

The structures appear in SMILES notation. The list shows only some results of the screen, not a fair sample: it is rich in T/C values a quarter to a half above the control, in often repeated tests (any T/C) and in doses without a T/C. Further doses and runs are listed elsewhere. T/C: endpoint of the treated group in % of that of the vehicle group. Some entries give survivors of the animals treated and no T/C: the source holds a T/C of zero for them, seemingly a mark for toxic or unscored doses. Some survivor counts are full or nearly so, which does not show that the dose was tolerated: the source hardly ever lists a survival T/C far under the control, and the zero likely stands for such cases as well. Counts of survivors are from the toxicity check (mostly the fifth day) where no day follows; animals may have died later. Schedule codes are those of the source, read here as Q, the interval in days (D) or hours (H), X, the number of doses. Some schedule codes hold Z or #, which are not explained here. Where survival is the endpoint, the PubChem record calls one and a half times the control and up active, and a quarter to a half above the control has no call in these data; cut-offs in other NCI protocols can differ. Some doses were run more than once; their values stand side by side, smallest first.

Take `C[C@]12CCC(=O)C=C1CC[C@@H]1[C@@H]2C(=O)C[C@]2(C)C3=CC(=O)O[C@H]3C[C@@H]12`: the survivor count under setting [1] was 1 of 6, the survivor count under setting [2] was 0 of 6 and the survivor count under setting [3] is on record as 0 of 6.
As for `Cc1cccc(NCC(=O)NN)c1`, the survivor count (dose: 400.0 mg/kg/injection, schedule: Q04DX002 (ip), vehicle: Klucel (hydroxypropylcellulose) (HPC)) is recorded as 3 of 3.
Turning to `COc1ccccc1N1CCN(CCCC(=O)c2ccc(F)cc2)CC1`, the survivor count by setting is: under setting [2], 3 of 6; under setting [4], 3 of 4.
Consider `CCN(CC)C(=O)CCc1ccccc1`, for which the survivor count under setting [5] is given as 0 of 6.
On to `NC(N)=N/N=C/C(O)CO` (stereo unspecified), for which the T/C by setting is: under setting [6], 142 % of control; under setting [7], 139 % of control; (dose: 120.0 mg/kg/injection, schedule: Q01DX Z (oral), vehicle: methylcellulose (MC)) 138 % of control. Also, for the setting “dose: 480.0 mg/kg/injection, schedule: Q01DX Z (oral), vehicle: methylcellulose (MC)”, the survivor count was 3 of 6.
Consider `Brc1ccc(C[N+]23CN4CN(CN(C4)C2)C3)cc1`, for which the survivor count by setting is: under setting [5], 0 of 6; (dose: 480.0 mg/kg/injection, schedule: Q01DX015 (ip), vehicle: saline) 0 of 6.
Regarding `CC1CC(C)CC(NC(=O)NCCCl)C1` (stereo unspecified), the survivor count is 5 of 6 under setting [1] and 4 of 6 under setting [3].
With `O/N=C/c1ccc2ccccc2n1`, the survivor count (dose: 150.0 mg/kg/injection, schedule: Q04DX003 (ip), vehicle: Klucel (hydroxypropylcellulose) (HPC)) is given as 0 of 6 and the survivor count (dose: 300.0 mg/kg/injection, schedule: Q04DX003 (ip), vehicle: Klucel (hydroxypropylcellulose) (HPC)) is 0 of 6.
Regarding `COc1ccc(CCO)cc1OC`, the survivor count was 4 of 4 (dose: 100.0 mg/kg/injection, schedule: Q01DX001 (ip), vehicle: carboxymethylcellulose (CMC)) and 4 of 4 (dose: 200.0 mg/kg/injection, schedule: Q01DX001 (ip), vehicle: carboxymethylcellulose (CMC)).
As to `CCN(/N=C/c1ccc([N+](=O)[O-])o1)C(N)=O`, under “dose: 100.0 mg/kg/injection, schedule: Q04DX002 (ip), vehicle: saline with Tween-80”, the survivor count is recorded as 1 of 3.
For `O=S(=O)(O)C(I)I`, the survivor count by setting is: (dose: 50.0 mg/kg/injection, schedule: Q01DX001 (ip), vehicle: saline) 0 of 3; under setting [8], 0 of 3; under setting [9], 0 of 3; under setting [10], 0 of 3.
With `Nc1ccc([N+](=O)[O-])cc1[N+](=O)[O-]`, the survivor count is 6 of 6 under setting [11] and 6 of 6 under setting [4].
As for `CC(CO)(CO)N1C(=O)c2cccc3cc([N+](=O)[O-])cc(c23)C1=O`, under setting [3], the survivor count is listed as 2 of 6.
Turning to `CCOP(=S)(N1CC1(C)C)N1CC1(C)C` (stereo unspecified), where the note is “dose: 400.0 mg/kg/injection, schedule: Q01DX015 (ip), vehicle: carboxymethylcellulose (CMC)”, the survivor count is listed as 0 of 6.
As to `C/C=N/N(C)C=O`, the survivor count under setting [12] is reported as 1 of 4.
`Cc1ccc(C(=O)CC(Sc2ccccc2N)c2cccc([N+](=O)[O-])c2)cc1` (stereo unspecified): the survivor count (dose: 200.0 mg/kg/injection, schedule: Q04DX002 (ip), vehicle: Klucel (hydroxypropylcellulose) (HPC)) was 3 of 3.
For the compound `Oc1cc[c]([Hg][Cl])cc1`, the survivor count by setting is: (dose: 100.0 mg/kg/injection, schedule: Q04DX003 (ip), vehicle: Klucel (hydroxypropylcellulose) (HPC)) 6 of 6; under setting [11], 0 of 6; under setting [4], 0 of 6.
With `CC1(C)N=C(N)N=C(N)N1c1cccc(OCCOc2ccc(N)cc2)c1`, the survivor count by setting is: (dose: 80.0 mg/kg/injection, schedule: Q01DX001 (ip), vehicle: saline) 2 of 6; under setting [8], 2 of 6; under setting [9], 0 of 6; under setting [10], 0 of 6.
Turning to `CN=C(NC)c1ccc(NC(=O)c2ccc(C(=O)Nc3ccc(C(=NC)NC)cc3)cc2)cc1`, the T/C runs as follows: (dose: 3.75 mg/kg/injection, schedule: Q01DX Z (ip), vehicle: methylcellulose (MC)) 135 % of control; (dose: 7.5 mg/kg/injection, schedule: Q01DX Z (ip), vehicle: methylcellulose (MC)) 143 and 146 % of control; under setting [13], 141 % of control; (dose: 960.0 mg/kg/injection, schedule: Q01DX Z (oral), vehicle: carboxymethylcellulose (CMC)) 127 % of control. For the same compound, the survivor count was 0 of 6 under setting [13]; 0 of 6 (dose: 30.0 mg/kg/injection, schedule: Q01DX Z (ip), vehicle: methylcellulose (MC)); 0 of 6 under setting [6]; 0 of 6 under setting [7].
`CC(=O)n1ccnc1/C=C\c1ccc([N+](=O)[O-])s1`: the survivor count under setting [4] is 0 of 6.
As to `NC(=O)NN=C1CCC(CC2CCCCC2)CC1` (stereo unspecified), under “dose: 100.0 mg/kg/injection, schedule: Q04DX003 (ip), vehicle: saline with Tween-80”, the survivor count was 5 of 6.
As for `O=C(O)Cc1ccc2c(c1)OCO2.[Ag]`, the survivor count reads like this: (dose: 75.0 mg/kg/injection, schedule: Q01DX001 (ip), vehicle: steroid suspending solution) 0 of 6; (dose: 150.0 mg/kg/injection, schedule: Q01DX001 (ip), vehicle: steroid suspending solution) 0 of 6; (dose: 300.0 mg/kg/injection, schedule: Q01DX001 (ip), vehicle: steroid suspending solution) 0 of 6.
As for `O=C(CBr)NC(Cc1ccccc1)C(=O)O` (stereo unspecified), the survivor count reads like this: (dose: 150.0 mg/kg/injection, schedule: Q01DX001 (ip), vehicle: saline) 1 of 6; (dose: 300.0 mg/kg/injection, schedule: Q01DX001 (ip), vehicle: saline) 3 of 6.
In the case of `C[N+](C)(C)CCCCCC[N+](C)(C)C`, the survivor count is listed as 4 of 6 (dose: 200.0 mg/kg/injection, schedule: Q04DX003 (ip), vehicle: saline) and 0 of 6 under setting [12].
Consider `O=S(=O)(/C=C/c1ccccc1)Oc1ccc(-c2ccccc2)cc1`, for which, where the note is “dose: 200.0 mg/kg/injection, schedule: Q01DX009 (ip), vehicle: acetone”, the survivor count was 6 of 6.
For `Clc1ccc(CN2CCCN(C3CCCCC3)C2C2CCC=CO2)cc1` (stereo unspecified), the survivor count was 2 of 6 under setting [9] and 1 of 6 under setting [10].
`N#CC(C#N)=Cc1ccc(C=C(C#N)C#N)cc1`: the survivor count runs as follows: under setting [2], 5 of 6; under setting [3], 5 of 6.
Turning to `NC(=O)CNC1=C(N2CC2)C(=O)C(NCC(N)=O)=C(N2CC2)C1=O`, the T/C by setting is: (dose: 1.25 mg/kg/injection, schedule: Q01DX009 (ip), vehicle: saline) 128 % of control; (dose: 2.0 mg/kg/injection, schedule: Q04DX003 (ip), vehicle: saline) 144 % of control; (dose: 2.5 mg/kg/injection, schedule: Q01DX009 (ip), vehicle: saline) 133 % of control; (dose: 4.0 mg/kg/injection, schedule: Q04DX003 (ip), vehicle: saline) 143 % of control; (dose: 5.0 mg/kg/injection, schedule: Q01DX009 (ip), vehicle: saline) 142 % of control; (dose: 5.2 mg/kg/injection, schedule: Q04DX003 (ip), vehicle: saline) 126 % of control. The T/C (dose: 8.0 mg/kg/injection, schedule: Q04DX003 (ip), vehicle: saline) is 132 % of control.
